Experimental data published in patent US20150285806A1.
No constants are given. Whether binding was seen depends on the method and setting. Some binding calls cover weakened binding; strength is not graded here.

The chains behind the UniProt entries cited, without tags or fusion partners. Where a name states a change or a piece, a line headed by the entry shows the natural chain unless it says otherwise.
UniProt P51654: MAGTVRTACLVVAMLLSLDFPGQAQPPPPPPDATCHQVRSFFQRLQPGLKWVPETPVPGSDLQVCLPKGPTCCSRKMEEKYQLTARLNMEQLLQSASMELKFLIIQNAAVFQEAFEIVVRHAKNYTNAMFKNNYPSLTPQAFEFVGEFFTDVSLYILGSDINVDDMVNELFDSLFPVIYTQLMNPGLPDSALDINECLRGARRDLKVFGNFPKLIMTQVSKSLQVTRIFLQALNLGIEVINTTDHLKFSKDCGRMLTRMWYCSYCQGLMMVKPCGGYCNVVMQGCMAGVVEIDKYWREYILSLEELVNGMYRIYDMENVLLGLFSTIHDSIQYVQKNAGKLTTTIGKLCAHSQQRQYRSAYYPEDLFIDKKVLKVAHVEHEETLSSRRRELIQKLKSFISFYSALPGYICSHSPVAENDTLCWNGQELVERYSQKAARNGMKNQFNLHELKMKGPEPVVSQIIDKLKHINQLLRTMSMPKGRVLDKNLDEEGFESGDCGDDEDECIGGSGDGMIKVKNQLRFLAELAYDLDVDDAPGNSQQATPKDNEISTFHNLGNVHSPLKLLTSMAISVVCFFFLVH

B1: GT30 antibody (antibody, V domains shown)
VH: QVQLQQSGAELARPGASVKLSCRASGYTFTSYGISWMMQRTGQGLEWIGEIYPRSGITYYNEKFKGKATLTADKSSSTAYMQLSSLTSEDSAVYFCARDVSDGYLFPYWGQGTLVTVSA
VL: DIQMTQSPASLSASVGETVTITCRTSENIYSYLAWYQQKQGKSPQLLVYNAKTLPEGVPSRFSGSGSGTQFSLKINSLQPEDFGSYYCQHHYGTPPTFGGGTKLEIKR
B2: GT607 antibody (antibody, V domains shown)
VH: EVQLVESGGDVVRPGGSLKLSCAASGFTFSSYGMSWVRQLPDKRLEWVASVGNGGSYRYYPENLKGRFTISRDNTKNTLYLQISGLKSEDTAIYYCARRGAFPYFDVWGAGTTVTVSS
VL: DIQMTQSPASLSASVGETVTITCRTSENIYSYLAWYQQKQGKSPQLLVYNAKTLPEGVPSRFSGSGSGTQFSLKINSLQPEDFGSYYCQHHYGTPPTFGGGTKLEIKR
B3: GT165 antibody (antibody, V domains shown)
VH: QVQLQQSGAELVGPGASVKISCKAFGYTFTNHHINWVKQRPGQGLDWIGYINPYNDYTNYNQKFKGKATLTVDKSSSTAYMELSSLTSEDSAVYYCARSDPAWFAYWGQGTLVTVSA
VL: DIQMTQSPSSLSASLGGKVTITCKASQDINKNIAWYQHKPGKGPRLLIWYTYTLQPGIPSRFSGSGSGRDYSFSISNLEPEDIATYYCLQYDNLPFTFGTGTKLEIKR
B4: GT114 antibody (antibody, V domains shown)
VH: DVQLQESGPGLVKPSQSLSLTCTVTGYSITSDSAWNWIRQFPGNKLEWMAYIMYSGITSYNPSLKSRISITRDTAKNQFFLQLNSVTTEDSATYYCSRGYWYFDVWGAGTTVTVSS
VL: QIVLTQSPAIMSASLGEEITLTCSASSSVSYMHWYQQKSGTSPKLLIYSTSILASGVPSRFSGSGSGTFYSLTISSVEAEDAADYYCLQWITYRTFGGGTKLEIKR

target: free GPC3 (Homo sapiens (Human)) (UniProt P51654); test: antibody selection; method not described (prepared per WO2004/022739)

binding, binds:
B1
B2
B3
B4
